This passage reports binding results from publication PMC9039026.

Amino acid sequences for entries named in this document (tags omitted). A change or cut given only in a name is not applied to a line headed by its entry.
UniProt Q8IJ72: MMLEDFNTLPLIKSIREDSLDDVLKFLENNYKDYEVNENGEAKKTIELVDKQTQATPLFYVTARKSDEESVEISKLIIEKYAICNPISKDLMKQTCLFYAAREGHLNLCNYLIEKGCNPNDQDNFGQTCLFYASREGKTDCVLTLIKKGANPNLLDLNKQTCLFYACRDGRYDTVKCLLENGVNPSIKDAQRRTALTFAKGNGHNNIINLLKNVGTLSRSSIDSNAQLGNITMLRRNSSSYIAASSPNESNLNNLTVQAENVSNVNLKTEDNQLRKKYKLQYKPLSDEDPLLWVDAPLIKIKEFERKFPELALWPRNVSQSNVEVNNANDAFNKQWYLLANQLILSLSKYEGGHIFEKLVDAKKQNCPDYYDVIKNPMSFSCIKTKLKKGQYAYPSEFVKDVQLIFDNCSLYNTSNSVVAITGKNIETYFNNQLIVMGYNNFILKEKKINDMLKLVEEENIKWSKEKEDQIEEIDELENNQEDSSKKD
UniProt Q8IB66: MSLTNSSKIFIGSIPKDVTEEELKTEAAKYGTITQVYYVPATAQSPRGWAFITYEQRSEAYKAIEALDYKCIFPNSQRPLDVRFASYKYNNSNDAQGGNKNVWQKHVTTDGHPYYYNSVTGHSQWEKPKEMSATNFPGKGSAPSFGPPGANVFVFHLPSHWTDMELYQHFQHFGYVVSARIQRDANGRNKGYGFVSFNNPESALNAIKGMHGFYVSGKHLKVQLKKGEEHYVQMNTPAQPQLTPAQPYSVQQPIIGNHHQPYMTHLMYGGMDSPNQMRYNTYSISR
UniProt Q8I5S4: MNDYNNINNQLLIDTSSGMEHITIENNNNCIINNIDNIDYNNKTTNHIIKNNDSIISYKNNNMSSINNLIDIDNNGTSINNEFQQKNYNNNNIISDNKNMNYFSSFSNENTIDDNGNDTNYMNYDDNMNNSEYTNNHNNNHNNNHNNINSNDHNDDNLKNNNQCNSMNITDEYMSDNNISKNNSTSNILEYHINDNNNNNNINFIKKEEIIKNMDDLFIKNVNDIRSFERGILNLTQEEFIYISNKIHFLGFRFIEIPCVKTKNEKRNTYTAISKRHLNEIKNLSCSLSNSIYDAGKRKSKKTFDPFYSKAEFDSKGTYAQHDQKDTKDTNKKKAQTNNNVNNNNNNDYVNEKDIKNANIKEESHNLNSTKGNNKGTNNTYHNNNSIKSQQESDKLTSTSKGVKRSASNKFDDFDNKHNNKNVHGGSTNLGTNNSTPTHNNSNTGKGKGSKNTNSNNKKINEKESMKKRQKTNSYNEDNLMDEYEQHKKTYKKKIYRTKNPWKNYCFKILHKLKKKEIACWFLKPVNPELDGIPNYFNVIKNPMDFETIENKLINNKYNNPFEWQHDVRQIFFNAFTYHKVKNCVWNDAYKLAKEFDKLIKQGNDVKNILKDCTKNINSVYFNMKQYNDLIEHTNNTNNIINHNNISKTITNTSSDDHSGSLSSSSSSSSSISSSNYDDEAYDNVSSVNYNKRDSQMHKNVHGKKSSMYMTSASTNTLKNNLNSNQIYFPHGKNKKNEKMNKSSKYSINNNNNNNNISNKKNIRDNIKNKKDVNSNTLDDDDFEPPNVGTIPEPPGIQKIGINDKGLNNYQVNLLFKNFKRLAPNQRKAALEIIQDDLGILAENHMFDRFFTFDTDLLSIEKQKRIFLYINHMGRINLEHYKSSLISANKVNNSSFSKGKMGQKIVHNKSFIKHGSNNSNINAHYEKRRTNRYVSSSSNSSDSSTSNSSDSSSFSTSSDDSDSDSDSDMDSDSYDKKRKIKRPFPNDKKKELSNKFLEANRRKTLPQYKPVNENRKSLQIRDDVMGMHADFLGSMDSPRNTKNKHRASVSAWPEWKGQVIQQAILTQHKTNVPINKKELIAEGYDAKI

The target in this test is PfBDP1HA (P. falciparum bromodomain protein 1, HA-tagged) (P. falciparum) (UniProt Q8IJ72). The test can be described thus: affinity purification with mass spectrometry; co-IP with anti-HA or anti-Ty from nuclear extracts of PfBDP1HA::PfBDP7BirATy parasites and with anti-Ty from PfBDP7Ty_GlmS parasites; LC-MS of eluates; negative controls anti-Ty IP in 3D7 wild type and non-immune IgG.

Results are given in words; binding and its absence hold for the method and conditions named. In cells and extracts the contact can be indirect. A yes stands for co-enrichment or nearness to the bait. Other partners may have been found.

On to “predicted RNA-binding protein Pf3D7_0823200 (from UniProt Q8IB66)”, for which the binding entry is on record as “binds”.
For “PfBDP2 (P. falciparum bromodomain protein 2) (from UniProt Q8I5S4)” the value was “binds”.
